Laboratory results as given in patent US20040009961A1, “Composition and therapies for hyperlipidaemia-associated disorders” (priority 2000, published 2004).
At least one compound was matched to its structure with a doubt left.

How the values were obtained:
[1] = system: patient with primary biliary cirrhosis and hypertriglyceridaemia; experiment: Treatment of hyperlipidaemia associated with primary biliary cirrhosis (case report, Example 1); format: in vivo, human; conditions: 2 grams of ursodeoxycholic acid alone for several years, before the combination
[2] = system: hyperlipidaemia; conditions: UDCA alone; cited from earlier work
[3] = system: NASH; conditions: Laurin et al, Hepatalogy 23 1464 (1996); cited from earlier work
[4] = system: primary biliary cirrhosis; conditions: bezafibrate alone; Day et al, Metabolism 42 839 (1993); cited from earlier work

Row | SMILES | alkaline phosphatase, GGT, AST and ALT on UDCA alone [1] | effects upon hyperlipidaemia [2] | effect in NASH [3] | effect on lowering alkaline phosphatase [4]
1 | C[C@H](CCC(=O)O)[C@H]1CC[C@H]2[C@@H]3[C@@H](O)C[C@@H]4C[C@H](O)CC[C@]4(C)[C@H]3CC[C@]12C [UDCA, Ursodeoxycholic acid] | remained elevated | only minor effects | modest effect | 
2 | CC(C)(Oc1ccc(CCNC(=O)c2ccc(Cl)cc2)cc1)C(=O)O [bezafibrate, 2-[4-[2-[(chlorobenzoyl)amino]-ethyl]phenoxy]-2-methylpropanoic acid] |  |  | no effect | only a modest effect
